Results published in US20150307625A1 (Bayer, published 2015).
Results are given in words; binding and its absence hold for the method and conditions named. For some of these results: Binding calls can cover weak binding; strength is not graded here.

How the values were obtained:
[1] = target: dog activated Protein C (dog); experiment: direct ELISA, antigen coated at 100 ng/well, Fab at 20 nM (1 ug/ml), anti-human Fab-HRP, AmplexRed (RFU)
[2] = target: activated Factor VII; experiment: direct ELISA, antigen coated
[3] = target: activated Factor X; experiment: direct ELISA, antigen coated
[4] = target: activated Factor IX; experiment: direct ELISA, antigen coated
[5] = target: dog activated Protein C (dog); experiment: species aPC ELISA
[6] = target: activated Factor IX; experiment: direct ELISA, FIXa coated at 5 ug/ml, Fab at 20 nM, anti-human Fab-HRP, AmplexRed (RFU)
[7] = target: activated Factor VII; experiment: direct ELISA, FVIIa coated at 10 ug/ml, Fab at 20 nM, anti-human Fab-HRP, AmplexRed (RFU)
[8] = target: dog activated Protein C (dog); experiment: direct ELISA, Fab at 20 nM
[9] = target: activated Factor X; experiment: direct ELISA, FXa coated at 10 ug/ml, Fab at 20 nM, anti-human Fab-HRP, AmplexRed (RFU)
[10] = target: mouse activated Protein C (mouse); experiment: direct ELISA, antigen coated at 1 ug/ml, IgG at 20 nM, anti-human IgG-HRP, AmplexRed (RFU)
[11] = target: rabbit activated Protein C (rabbit); experiment: as above
[12] = target: dog activated Protein C (dog); experiment: as above
[13] = target: rabbit activated Protein C (rabbit); experiment: direct ELISA, hIgG1
[14] = target: dog activated Protein C (dog); experiment: direct ELISA, hIgG1
[15] = target: mouse activated Protein C (mouse); experiment: direct ELISA, IgG at 20 nM
[16] = target: rabbit activated Protein C (rabbit); experiment: direct ELISA, IgG at 20 nM
[17] = target: dog activated Protein C (dog); experiment: direct ELISA, IgG at 20 nM
[18] = target: mouse activated Protein C (mouse); experiment: direct ELISA, antigen coated at 100 ng/well, Fab at 20 nM (1 ug/ml), anti-human Fab-HRP, AmplexRed (RFU)
[19] = target: mouse activated Protein C (mouse); experiment: direct ELISA, Fab at 20 nM

Binder | binding [1] | binding [2] | binding [3] | binding [4] | binding [5] | binding [6] | binding [7] | binding [8] | binding [9] | binding [10] | binding [11] | binding [12] | binding [13] | binding [14] | binding [15] | binding [16] | binding [17] | binding [18] | binding [19]
C7A23 Fab (Fab, V domains shown, Human Fab (lambda) from a phage library, expressed in E. coli) VH: EVQLLESGGGLVQPGGSLRLSCAASGFTFGNHWMTWVRQAPGKGLEWVSGVSWNGSRTHYADSVKGRFTISRDNSKNTLYLQMNSLRAEDTAVYYCALTGRSGWMRFPNWFDPWGQGTLVTVTS VL: QSVLTQPPSASGTPGQRVTISCSGSSSNIGNNYVSWYQQLPGTAPKLLIYRNNQRPSGVPDRFSGSKSGTSASLAISGLRSEDEADYYCQSYDSDLSGPYVLFGGGTKLTVLG | binds | no binding (tested: 20 nM) | no binding (tested: 20 nM) | no binding (tested: 20 nM) | binds | no binding (tested: 20 nM) | no binding (tested: 20 nM) | binds | no binding (tested: 20 nM) | – | – | – | – | – | – | – | – | – | –
T46J23-hIgG1 (antibody, V domains shown, also called T46J23-IgG) VH: EVQLLESGGGLVQPGGSLRLSCAASGFTFGNHWMTWVRQAPGKGLEWVSGVSWNGSRTHYADSVKGRFTISRDNSKNTLYLQMNSLRAEDTAVYYCALTGRSGWMRFPNWFDPWGQGTLVTVTS VL: LTQPPSASGTPGQRVTISCTGTSSNIGAGYDVHWYQQLPGTAPKLLIYDNNNRPSGVPDRFSGSKSGTSASLAISGLRSEDEADYYCAAWDDSLNGVVFGGGTKLTVLG | – | – | – | – | – | – | – | – | – | binds | binds | binds | binds | binds | binds | binds | binds | – | –
C25K23 Fab (Fab, V domains shown, Human Fab (lambda) from a phage library, expressed in E. coli; also called Fab C25K23) VH: EVQLLESGGGLVQPGGSLRLSCAASGFTFSSYWMSWVRQAPGKGLEWVSGVSWNGSRTHYADSVKGRFTISRDNSKNTLYLQMNSLRAEDTAVYYCALTGRSGWMRFPNWFDPWGQGTLVTVTS VL: QSVLTQPPSASGTPGQRVTISCTGSSSNIGAAYDVHWYQQLPGTAPKLLIYGNNKRPSGVPDRFSGSKSGTSASLAISGLRSEDEADYYCQSYDSSLSGSVFGGGTKLTVLG | binds | no binding (tested: 20 nM) | no binding (tested: 20 nM) | no binding (tested: 20 nM) | binds | no binding (tested: 20 nM) | no binding (tested: 20 nM) | binds | no binding (tested: 20 nM) | – | – | – | – | – | – | – | – | – | –
T46J23 Fab (Fab, V domains shown, Human Fab (lambda), expressed in E. coli) VH: EVQLLESGGGLVQPGGSLRLSCAASGFTFGNHWMTWVRQAPGKGLEWVSGVSWNGSRTHYADSVKGRFTISRDNSKNTLYLQMNSLRAEDTAVYYCALTGRSGWMRFPNWFDPWGQGTLVTVTS VL: LTQPPSASGTPGQRVTISCTGTSSNIGAGYDVHWYQQLPGTAPKLLIYDNNNRPSGVPDRFSGSKSGTSASLAISGLRSEDEADYYCAAWDDSLNGVVFGGGTKLTVLG | binds | no binding (tested: 20 nM) | no binding (tested: 20 nM) | no binding (tested: 20 nM) | binds | no binding (tested: 20 nM) | no binding (tested: 20 nM) | binds | no binding (tested: 20 nM) | – | – | – | – | – | – | – | – | binds | binds
